Hit rate of the full screen: of about 320,000 compounds, about 2,100 (0.66%) were called active. Inconclusive results, whose numbers are uncertain, are shown with a selection of clear calls. Calls come from the whole dose curve; as a rule, active = well fitted inhibition curve with a large enough effect in the signal ratio, with a control signal flat (not every such curve was filed as active); inconclusive = small, poorly fitted or top-dose-only effect, or effect the other way, or a change in a side signal; inactive = flat fitted curve, though single readings scatter; the % refers to the signal ratio. Potencies beside an inconclusive call are fits to weak or partial responses and may not hold up.
Test: qHTS Assay for Lipid Storage Modulators in Drosophila S3 Cells
Conditions: BODIPY lipid droplet fluorescence, 18-24 h, cells fed with added oleic acid; lipid storage change, negative = inhibition: at 46.1 µM (top of the series) unless noted
Method in brief: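 Drosophila S3 cells loaded with oleic acid (400 uM, as added) and compounds at several concentrations; lipid droplets imaged by 488-nm laser-scanning cytometry, 500–530 nm intensity and object ratio to cell channel. Percent activity normalized to 20 uM Triacsin C.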
% is set by controls: 0 for no effect and ±100 for the full control effect; potency is the fitted concentration of half-maximal effect.

Compound | lipid storage change, negative = inhibition | Potency
CCN(Cc1ccccc1)C(=O)c1cc(-c2ccc(OC)c(OC)c2)nc2ccccc12 | inconclusive: -5.85% | –
COC(=O)C1=C(C)N=C2SC(C#N)=C(N)N2C1c1ccc(OCc2ccccc2)cc1 (stereo not given) | inconclusive: 3.63% | –
O=C(COC(=O)COc1ccc(Cl)cc1)NCCNC(=O)COC(=O)COc1ccc(Cl)cc1 | inconclusive: -1.3% | –
CC[n+]1c(/C=C/c2c[nH]c3ccccc23)ccc2cc(C)ccc21 | inconclusive: 5.14% | –
N#Cc1nc(-c2ccc(OCc3ccc(Cl)cc3)cc2)oc1N1CCC(C(N)=O)CC1 | – | inconclusive: 0.0046 µM [falling, full curve, poor fit]
CCCOc1ccc(OCC(=O)c2[nH]c(C)c(C(C)=O)c2C)cc1 | inconclusive: 151% | –
COc1ccc(-n2c(SCC#N)nnc2-c2cccnc2)cc1 | – | inconclusive: 2.59 µM [activator, single point]
CCCn1c(N)c(N(CCOC)C(=O)/C=C/c2ccc(C(=O)OC)cc2)c(=O)[nH]c1=O | inactive | –
CC1(c2ccccc2)NC(=O)N(CC(=O)N2CCN(S(=O)(=O)c3cccs3)CC2)C1=O (stereo not given) | inconclusive | –
COC(=O)C1=C(C)C(c2ccc(OC)cc2OC)NC(=O)N1 (stereo not given) | inconclusive: 8.61% | –
O=C(c1cc(F)ccc1F)C1CCCN(Cc2cccn2-c2ccccn2)C1 (stereo not given) | inconclusive: 15.6% | –
CCOc1cc(C(=O)NN=C2CCCC2)cc(OCC)c1OCC | inconclusive: -0.778% | –
O=C(Cn1nc(Cl)nc1Cl)c1ccc2c(c1)OCCO2 | inconclusive: 5.44% | –
Cc1nc(C#N)c(N/N=C/c2c(F)cccc2Cl)o1 | inconclusive: 3.08% | –
Cc1ccc(OCC(O)CN2CCN(c3ccccc3)CC2)cc1 (stereo not given) | inactive | –
CCCCC(=O)Nc1ccc(C(=O)N2CCCC(C(=O)OCC)C2)cc1 (stereo not given) | – | inconclusive: 0.92 µM [activator, full curve, poor fit]
Cc1c(C(=O)N2CCOCC2)c(S(=O)(=O)Nc2ccc(OC(F)(F)F)cc2)c(C)n1C | – | inconclusive: 0.82 µM [falling, full curve, poor fit]
COc1ccc2c(c1OC)C(=O)N(c1cccc(NC(C)=O)c1)C2 | inconclusive: 8.53% | –
Cc1ccnc(N/N=C/c2ccco2)n1 | inconclusive: 0.0094% | –
Cc1nn(C)cc1CNC(=O)C1CCC(=O)N(CC2CCCCC2)C1 (stereo not given) | inconclusive: 17.4% | –
CCOc1ccc(NS(=O)(=O)c2ccc(C(=O)NCCN3CCOCC3)cc2)cc1 | – | inconclusive: 0.731 µM [falling, single point]
O=C(O)COc1cccc(NC(=O)c2ccccc2)c1 | – | inconclusive: 0.0065 µM [falling, full curve, poor fit]
CC(C)c1ccccc1NC(=O)c1ccc2ncsc2c1 | inactive | –
Cc1cc(Br)cc(C)c1OCC(=O)NNC(=O)c1cccs1 | inconclusive: -46.8% | –
CCC(C)CN1CCC(CO)(Cc2ccccc2Cl)CC1 (stereo not given) | – | inconclusive: 29.1 µM [falling, single point]
CC1CN(Cc2nc3c(c(=O)[nH]c(=O)n3C)n2CC(N)=O)CC(C)O1 (stereo not given) | inconclusive: 2.7% | –
O=C(CSc1nnc(NC(=O)c2ccco2)s1)NC1CCCCC1 | – | inconclusive: 0.58 µM [falling, single point]

Compound | lipid storage change, negative = inhibition | Potency
Cc1ccc(S(=O)(=O)NNC(=O)CCC(=O)Nc2ccc(C)c(C)c2)cc1 | inconclusive: -71.3% | –
CS(=O)(=O)N1CCC(C(=O)Nc2ccc(Cl)cc2)CC1 | inconclusive: 34.4% | –
COc1cccc(CNC(=O)CCC2CCCN(C(=O)c3ccccc3N(C)C)C2)c1 (stereo not given) | – | inconclusive: 18.4 µM [falling, partial curve, poor fit]
Cc1nnc(SCC(=O)NCC2CCCCC2)n(N)c1=O | – | inconclusive: 6.51 µM [rising, single point]
Cc1noc(C)c1Cn1nc(C(=O)O)c2ccccc2c1=O | inconclusive: 30.1% | –
CCCN(C(=O)COC(=O)CSc1ccc([N+](=O)[O-])cc1)C1CCS(=O)(=O)C1 (stereo not given) | inconclusive: 16.2% | –
COc1ccccc1/C=C/C(=O)NCC(=O)N/N=C(/C)c1ccco1 | inconclusive: 81.4% | –
CCCNC(=O)C/C(C)=N/NC(=O)COc1ccc(C)cc1Br | inconclusive: -34.1% | –
CCCS(=O)(=O)N1CCCC(C(=O)NCCCN2CCN(c3ccccc3F)CC2)C1 (stereo not given) | inconclusive: -7.08% | –
O=C1/C(=C/c2cccc(F)c2)CSc2sccc21 | inconclusive: -37.8% | –
COc1ccc(Nc2nc(-c3ccccc3)nc3ccccc23)cc1 | – | inconclusive: 7.31 µM [activator, partial curve]
CCN(CC)c1ccc(/C=C(/C#N)c2nc3ccccc3[nH]2)c(OC(C)C)c1 | – | active: 3.66 µM
N#Cc1c(SCc2c(Cl)cccc2Cl)nc(N)[nH]c1=S | inconclusive: 1.52% | –
CCOP(=O)(OCC)/C(=N/OC(=O)c1ccc(OC)cc1)C(N)=O | inconclusive: -29.3% | –
CCSc1nc2sc3c(c2c(=O)n1-c1ccccc1)CCN(C)C3 | inconclusive: -9.5% | –
COc1ccc(CCN2CC(C(=O)NCCc3cnn(C)c3)CCC2=O)cc1 (stereo not given) | inconclusive: 24.1% | –
Cn1c(=O)[nH]c(=O)c2c1nc(NC1CCCCC1)n2CC(=O)NC1CCCCC1 | – | inconclusive: 0.461 µM [rising, full curve]
O=C(Nc1ccccc1C(=O)Nc1ccccc1C(=O)O)c1ccccc1 | inconclusive: 9.45% | –
CCOC(=O)c1ccc(NC(=O)CSc2nc(SC)ns2)cc1 | inconclusive: 122% | –
O=C(O)/C=C/C(=O)Nc1cccnc1 | – | inconclusive: 1.46 µM [falling, partial curve]
COc1ccc(S(=O)(=O)Nc2cccc(-c3ccc4nncn4n3)c2)cc1F | inconclusive: 1.29% | –
CC(NCC(=O)NCCc1ccc(S(N)(=O)=O)cc1)c1ccc(F)cc1 (stereo not given) | – | inconclusive: 18.4 µM [activator, single point]
COc1ccc(C(C)=O)cc1COc1ccc(Cl)cc1Cl | inconclusive: -3.58% | –
CCOC(=O)/C(C#N)=N/Nc1ccccc1C(=O)O | inconclusive: -25.9% | –
CCCN1CN(Cc2ccccc2)CC2=C1CC(C)(C)CC2=O | inactive | –
Cc1ccc(/C=C/C(=O)NCc2cccs2)c(C)c1 | inconclusive: 8.02% | –
CC1(C)C(C=C(Cl)Cl)C1C(=O)N(Cc1ccccc1Cl)C1CCS(=O)(=O)C1 (stereo not given) | inactive | –

By substructure: the entries above containing a thiophene ring, fused or not (5)
Compound | lipid storage change, negative = inhibition | Potency
CC1(c2ccccc2)NC(=O)N(CC(=O)N2CCN(S(=O)(=O)c3cccs3)CC2)C1=O (stereo not given) | inconclusive | –
Cc1cc(Br)cc(C)c1OCC(=O)NNC(=O)c1cccs1 | inconclusive: -46.8% | –
O=C1/C(=C/c2cccc(F)c2)CSc2sccc21 | inconclusive: -37.8% | –
CCSc1nc2sc3c(c2c(=O)n1-c1ccccc1)CCN(C)C3 | inconclusive: -9.5% | –
Cc1ccc(/C=C/C(=O)NCc2cccs2)c(C)c1 | inconclusive: 8.02% | –

Remaining list, next part:

Compound | lipid storage change, negative = inhibition | Potency
Cc1ccc(N2CC(C(=O)Nc3ccc(C)c(S(=O)(=O)N(C)C)c3)CC2=O)cc1 (stereo not given) | inconclusive: -9.74% | –
CCN(c1ccc(NC(=O)COC(=O)c2cc3ccccc3oc2=O)cc1)C(C)C | inconclusive: 31.7% | –
Cn1c(SCC(=O)Nc2ccc(NC(=O)c3cccc(F)c3)cc2)nnc1-c1ccncc1 | – | inconclusive: 6.51 µM [activator, single point]
COc1ccc(/C=N/NC(=O)c2ccc(CSc3nc(C)cc(C)n3)cc2)c(OC)c1OC | inconclusive: 26.9% | –
Cc1ccc(S(=O)(=O)N/N=C\c2ccc3c(c2)OCO3)cc1 | inconclusive: 0.753% | –
COc1ccc(CNC(=O)c2cccc(-c3ccc(C)c4ccccc34)n2)cc1 | inconclusive: 31.4% | –
CCOc1ccc(OCCNC(=O)C(NC(=O)c2c(F)cccc2F)C(C)C)cc1 (stereo not given) | – | inconclusive: 3.26 µM [falling, single point]
O=C(Nc1ccc(CN2CCCCC2)cc1)Nc1ccccc1Cl | – | inconclusive: 7.31 µM [cytotoxic, single point]
COc1ccc(C(=O)n2cnc(N)n2)cc1 | inconclusive: 8.04% | –
O=C1CC(C(=O)Nc2cccc3ccccc23)C2(CCCC2)O1 (stereo not given) | inconclusive: 3.84% | –
CC1CCCCC12NC(=O)N(CC(=O)N1CCN(S(=O)(=O)c3ccc4c(c3)CCC4)CC1)C2=O (stereo not given) | inconclusive | –
Cc1ccc(-n2c(Cc3noc4ccccc34)n[nH]c2=S)cc1 | inconclusive: -3.72% | –
Cc1ccc(S(=O)(=O)N2CCC(=O)N(CCOC(=O)Nc3cccc(Cl)c3)CC2)cc1 | inconclusive: -0.628% | –
COc1ccc(N2CCN(CC(O)COc3cc(C)ccc3C)CC2)cc1 (stereo not given) | inactive | –
C(=N\N1CCN(c2ccccn2)CC1)/c1ccccn1 | – | inconclusive: 29.1 µM [cytotoxic, single point]
O=C1C=C(c2ccc(F)nc2)C[C@@H](c2ccc3c(c2)OCO3)C1 | – | inconclusive: 0.116 µM [activator, full curve, poor fit]
CNc1ncc(C(=O)c2ccc(Br)cc2)s1 | inconclusive: 33.1% | –
COc1ccccc1N1CCN(C(=O)c2sc3nc(C)nc(N4CCN(c5ccccn5)CC4)c3c2C)CC1 | inconclusive: -86.6% | –
O=C(/C=C/c1ccccc1Cl)N1CCOCC1 | inconclusive: 6.09% | –
O=C(CN(Cc1cccs1)C(=O)CNC(=O)c1ccco1)NC1CCCCC1 | – | inconclusive: 29.1 µM [activator, single point]
Cc1ccc(-n2c(=O)[nH]c3ncccc3c2=O)cc1 | inconclusive: 11.9% | –
Clc1ccc(-c2nnc3n2CCCS3)cc1 | inconclusive: -11.3% | –
Cc1ccc2cc(CN(CC(C)C)S(=O)(=O)c3ccccc3)c(=O)[nH]c2c1 | inconclusive: -56% | –
CCOC(=O)c1c(NC(=O)CC)sc(C(C)=O)c1C | – | inconclusive: 1.03 µM [activator, partial curve]
CN1C(=S)SC(/[N+]([O-])=C/c2cccnc2)C1(C)C (stereo not given) | inconclusive: 8.16% | –
CC(C)(C)C(=O)Nc1cc(NC(=O)C(C)(C)C)cc(C(=O)NNC(=O)c2ccncc2)c1 | inconclusive: 3.95% | –

Source: PubChem BioAssay AID2685 (National Center for Advancing Translational Sciences (NCATS), 2010)
